# Article doi:10.1101/2020.12.14.422803
# The chains behind the UniProt entries cited, without tags or fusion partners.
# UniProt P48292: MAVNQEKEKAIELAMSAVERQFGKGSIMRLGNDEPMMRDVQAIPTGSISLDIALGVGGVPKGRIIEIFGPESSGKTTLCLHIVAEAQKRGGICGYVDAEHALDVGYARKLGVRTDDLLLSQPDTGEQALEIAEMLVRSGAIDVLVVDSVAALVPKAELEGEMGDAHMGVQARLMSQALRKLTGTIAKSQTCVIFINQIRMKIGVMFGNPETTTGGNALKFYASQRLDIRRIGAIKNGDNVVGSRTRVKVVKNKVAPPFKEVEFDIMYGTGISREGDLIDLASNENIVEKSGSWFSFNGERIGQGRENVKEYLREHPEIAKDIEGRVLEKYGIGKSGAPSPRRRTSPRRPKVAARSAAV
# No constants are given. Whether binding was seen depends on the method and setting. Some entries that bind do so weakly or less than the wild type. Sequences can lack the tags named with a protein.
# B1: RecA1 (M. xanthus), yeast two-hybrid fusion (protein, UniProt P48291 1-342)
# chain: MSKLAEKLKAVAAAVASIEKQFGRGSVMTLGGEAREQKVAVIPSGSVGVDRALGVGGYPRGRVVEVFGNESSGKTTLTLHAIAQVQAAGGVAAFIDAEHALDVSYARKLGVRVEELLVSQPDTGEQALEITEHLVRSGAVDLIVVDSVAALVPRAEIEGEMGDAHMGVQARLMSQALRKLTGAVSRSGTCIIFINQIRMKIGVMFGNPETTTGGNALKFYASVRMEIRRTGNIKDGDAVVGSKARVKVVKNKVAPPFQEAEFDLMYGSGIHRVGEVLDLGVATGLIEKSGSYFSLRGERIGQGRERAAEWLREHPDVLEALGKEITGTSALPSSPAPVEVAA
# Biological target: RecA2 (M. xanthus), yeast two-hybrid fusion (Myxococcus xanthus DK1622) (UniProt P48292)
# Test: two-hybrid
binder,measurement,value
B1,binding,binds
